The results in this text go back to paper doi:10.1101/2023.06.08.544225.

The chains behind the UniProt entries cited, without tags or fusion partners.
UniProt P49736: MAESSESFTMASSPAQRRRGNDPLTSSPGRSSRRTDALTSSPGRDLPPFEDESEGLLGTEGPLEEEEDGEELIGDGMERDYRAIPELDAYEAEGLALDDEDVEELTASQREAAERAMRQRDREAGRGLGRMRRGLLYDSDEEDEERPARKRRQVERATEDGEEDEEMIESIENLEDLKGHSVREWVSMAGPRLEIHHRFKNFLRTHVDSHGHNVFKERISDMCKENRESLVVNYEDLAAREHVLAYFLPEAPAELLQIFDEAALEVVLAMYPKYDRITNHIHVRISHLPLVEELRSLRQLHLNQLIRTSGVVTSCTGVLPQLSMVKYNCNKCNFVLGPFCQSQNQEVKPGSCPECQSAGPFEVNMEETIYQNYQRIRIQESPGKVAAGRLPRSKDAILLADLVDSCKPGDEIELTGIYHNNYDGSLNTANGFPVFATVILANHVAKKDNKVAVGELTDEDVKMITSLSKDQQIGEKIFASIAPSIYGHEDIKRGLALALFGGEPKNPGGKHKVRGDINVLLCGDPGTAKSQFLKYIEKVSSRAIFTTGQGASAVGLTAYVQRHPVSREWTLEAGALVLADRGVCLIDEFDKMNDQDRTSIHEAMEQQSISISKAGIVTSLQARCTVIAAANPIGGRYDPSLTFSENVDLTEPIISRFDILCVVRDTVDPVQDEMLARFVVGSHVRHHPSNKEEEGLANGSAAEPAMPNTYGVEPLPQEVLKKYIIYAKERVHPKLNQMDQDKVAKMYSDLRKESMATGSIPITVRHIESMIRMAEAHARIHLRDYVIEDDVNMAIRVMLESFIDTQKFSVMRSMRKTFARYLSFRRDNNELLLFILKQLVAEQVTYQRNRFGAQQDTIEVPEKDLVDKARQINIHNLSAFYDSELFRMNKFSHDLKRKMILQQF
UniProt Q9Y5B9: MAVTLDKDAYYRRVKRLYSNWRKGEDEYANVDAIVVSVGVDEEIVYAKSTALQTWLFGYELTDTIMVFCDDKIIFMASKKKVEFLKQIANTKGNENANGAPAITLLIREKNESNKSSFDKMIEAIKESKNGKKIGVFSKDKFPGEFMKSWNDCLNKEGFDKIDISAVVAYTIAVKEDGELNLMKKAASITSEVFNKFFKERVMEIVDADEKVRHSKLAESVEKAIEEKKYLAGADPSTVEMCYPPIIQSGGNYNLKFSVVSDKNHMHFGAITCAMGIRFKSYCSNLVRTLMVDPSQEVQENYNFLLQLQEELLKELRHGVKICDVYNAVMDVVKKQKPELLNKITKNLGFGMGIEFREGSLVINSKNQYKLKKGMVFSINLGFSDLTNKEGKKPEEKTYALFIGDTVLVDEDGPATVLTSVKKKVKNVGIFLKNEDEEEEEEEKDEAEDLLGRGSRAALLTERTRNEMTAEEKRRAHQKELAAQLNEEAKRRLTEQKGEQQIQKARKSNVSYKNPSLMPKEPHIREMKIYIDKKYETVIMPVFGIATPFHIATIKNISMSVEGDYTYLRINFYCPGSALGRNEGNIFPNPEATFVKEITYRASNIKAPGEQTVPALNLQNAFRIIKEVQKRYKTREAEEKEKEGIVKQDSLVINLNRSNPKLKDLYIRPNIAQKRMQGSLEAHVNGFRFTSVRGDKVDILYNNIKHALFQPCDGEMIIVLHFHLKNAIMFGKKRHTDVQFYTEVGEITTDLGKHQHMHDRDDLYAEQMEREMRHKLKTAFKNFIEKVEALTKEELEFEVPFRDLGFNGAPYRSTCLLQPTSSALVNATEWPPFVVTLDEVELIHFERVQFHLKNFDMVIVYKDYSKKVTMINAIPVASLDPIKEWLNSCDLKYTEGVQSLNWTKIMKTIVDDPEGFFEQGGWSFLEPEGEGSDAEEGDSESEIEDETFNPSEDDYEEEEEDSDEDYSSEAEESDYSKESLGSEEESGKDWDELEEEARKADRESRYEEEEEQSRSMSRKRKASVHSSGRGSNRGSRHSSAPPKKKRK

These are yes or no findings as the source states them, for the method shown. In cells and extracts the contact can be indirect. Here binding means that the protein was enriched with, or labelled near, the bait; the list need not be complete.

The target in assay [1] is minichromosome maintenance complex component II (MCM2) (human (endogenous in HEK293XT)) (UniProt P49736). The assay is described as follows: affinity purification with mass spectrometry; IP of the endogenous bait (10 µg antibody on Dynabeads Protein G, overnight 4°C) from HEK293XT lysate (150 mM NaCl, 50 mM Tris pH 7.5, 1% IGPAL-CA-630, 5% glycerol), triplicate, TMT11 LC-MS/MS; hit found in both arms, with and without RNase ('direct'), or arm not told.

Assay [2] has the same target. Briefly: affinity purification with mass spectrometry; same IP-MS, arm with RNase treatment of the HEK293XT lysate (5 µl of 10 mg/ml RNase per ~200 µl, 20 min on ice); hits found only here are called 'RNA-shielded'.
Assay [3] shares this target. The assay is described as follows: affinity purification with mass spectrometry; IP of the endogenous bait (10 µg antibody on Dynabeads Protein G, overnight 4°C) from HEK293XT lysate (150 mM NaCl, 50 mM Tris pH 7.5, 1% IGPAL-CA-630, 5% glycerol), triplicate, TMT11 LC-MS/MS; hit found in both arms, with and without RNase ('direct'), or arm not told. This is another data set of the same source.

With SUPT16H (from UniProt Q9Y5B9 1-1047), the binding result in assay [1] is “binds”.

B1: NCOA5 (protein, UniProt Q9HCD5 1-579)
chain: MNTAPSRPSPTRRDPYGFGDSRDSRRDRSPIRGSPRREPRDGRNGRDARDSRDIRDPRDLRDHRHSRDLRDHRDSRSVRDVRDVRDLRDFRDLRDSRDFRDQRDPMYDRYRDMRDSRDPMYRREGSYDRYLRMDDYCRRKDDSYFDRYRDSFDGRGPPGPESQSRAKERLKREERRREELYRQYFEEIQRRFDAERPVDCSVIVVNKQTKDYAESVGRKVRDLGMVVDLIFLNTEVSLSQALEDVSRGGSPFAIVITQQHQIHRSCTVNIMFGTPQEHRNMPQADAMVLVARNYERYKNECREKEREEIARQAAKMADEAILQERERGGPEEGVRGGHPPAIQSLINLLADNRYLTAEETDKIINYLRERKERLMRSSTDSLPGPISRQPLGATSGASLKTQPSSQPLQSGQVLPSATPTPSAPPTSQQELQAKILSLFNSGTVTANSSSASPSVAAGNTPNQNFSTAANSQPQQRSQASGNQPPSILGQGGSAQNMGPRPGAPSQGLFGQPSSRLAPASNMTSQRPVSSTGINFDNPSVQKALDTLIQSGPALSHLVSQTTAQMGQPQAPMGSYQRHY
With B1, the binding result in assay [2] was “binds”.

B2: DNAJC9 (protein, UniProt Q8WXX5 1-260)
chain: MGLLDLCEEVFGTADLYRVLGVRREASDGEVRRGYHKVSLQVHPDRVGEGDKEDATRRFQILGKVYSVLSDREQRAVYDEQGTVDEDSPVLTQDRDWEAYWRLLFKKISLEDIQAFEKTYKGSEEELADIKQAYLDFKGDMDQIMESVLCVQYTEEPRIRNIIQQAIDAGEVPSYNAFVKESKQKMNARKRRAQEEAKEAEMSRKELGLDEGVDSLKAAIQSRQKDRQKEMDNFLAQMEAKYCKSSKGGGKKSALKKEKK
Take B2: in assay [3], the binding entry is listed as “binds”.
